We go through two substances from US20190169692A1.

Chains of the proteins cited; added tags and fusions are not shown.
UniProt Q86UX6: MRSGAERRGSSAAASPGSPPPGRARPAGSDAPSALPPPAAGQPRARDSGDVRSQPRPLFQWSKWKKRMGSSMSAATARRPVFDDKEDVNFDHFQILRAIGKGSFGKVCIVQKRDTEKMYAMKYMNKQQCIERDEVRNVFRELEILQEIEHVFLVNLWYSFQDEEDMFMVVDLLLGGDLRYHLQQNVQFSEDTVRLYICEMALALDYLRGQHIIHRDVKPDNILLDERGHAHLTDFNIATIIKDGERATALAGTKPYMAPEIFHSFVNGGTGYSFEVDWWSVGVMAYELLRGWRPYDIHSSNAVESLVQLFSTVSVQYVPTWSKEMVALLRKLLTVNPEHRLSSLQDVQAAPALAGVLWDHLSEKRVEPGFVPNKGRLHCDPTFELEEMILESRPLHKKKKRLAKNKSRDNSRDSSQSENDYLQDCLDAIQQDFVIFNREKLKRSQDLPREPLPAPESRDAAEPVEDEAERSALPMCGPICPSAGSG
UniProt P67809: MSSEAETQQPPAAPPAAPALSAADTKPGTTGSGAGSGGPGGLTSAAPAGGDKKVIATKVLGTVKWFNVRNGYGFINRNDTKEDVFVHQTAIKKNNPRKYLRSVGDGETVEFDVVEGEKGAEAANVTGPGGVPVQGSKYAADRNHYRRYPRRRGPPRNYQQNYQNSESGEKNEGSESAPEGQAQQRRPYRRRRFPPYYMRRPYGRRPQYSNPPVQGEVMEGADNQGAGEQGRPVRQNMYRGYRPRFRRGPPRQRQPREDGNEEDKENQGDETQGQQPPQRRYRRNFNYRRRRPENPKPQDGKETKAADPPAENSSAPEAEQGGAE

These are yes or no findings as the source states them, for the method shown. Some results given as binding are weak or reduced against the parent protein; the word gives no strength.

Assay [1] deals with serine threonine kinase 32C (STK32C) (UniProt Q86UX6). Kind of assay: reciprocal immunoprecipitation using YB-1, detection of STK32C (FIG. 19b).
The next assay deals with YB-1 protein (UniProt P67809). The experiment in a line: immunoprecipitation with STK32C antibody, detection of YB-1 (FIG. 19a).

Turning to “YB-1 protein (from UniProt P67809 1-324)”, the binding result in assay [1] is recorded as “binds”.

For the substance “serine threonine kinase 32C (STK32C) (from UniProt Q86UX6 1-486) (enzyme)”, the binding result with YB-1 protein is listed as “binds”.
